The other results are listed elsewhere or left out.
B1: il10ra_site1_normal_mot_HHH_b2_01205_000000166_0001_1_19_H_._HHH_b2_08156_0001_0000100001_0000001_0 (protein)
chain: SSSSSDARRVYELIRKAFELARRGNPEEARELMEEAEEIAEENNNLLLEFAIRFARRALESSSSS
B2: il10ra_site1_sap_14_mot_HHH_b1_07380_000000129_0001_1_20_H_._HHH_b1_04078_0001_0000100003_0000002_0_0001 (protein)
chain: SSSSSDEEEEEVEELIEQAKRIPDPRESSKILQRAVRIAIQISNEELLQEIWRLVKELASSSSSS
B3: il10ra_site1_sap_20_mot_HHH_b2_02497_000000141_0001_1_20_H_._HHH_b1_08287_0001_0000100024_0000001_0_0001_af2pred_0001 (protein)
chain: SSSDEDEKRARLAVRFIKWLLEQGDKRAVKHLLRALKELAKRLNDEELEEEIEELEELLEKLSSS
B4: il10ra_site1_sap_10_mot_0cd074c2d6d3de76f1399c5a775575d2_0001_1_af2_000000000_0001_16_30_H_._6bb093d23f5042b6c551c363657da53b_0001_1_0001_0000100004_0000001_0_0 … (protein)
chain: SSSSSSSDEVKARALTFFAKISDNPEAAKLSLEMALELARKLGDEELVEEIEELLEELSSSSSSS
B5: il10ra_site1_sap_22_mot_HHH_b2_06480_af2_000000075_0001_1_18_H_._HHH_b1_05928_0001_0000400032_0000001_0_0001_af2pred_0001 (protein)
chain: SSSSSSAERAVRLTIRSAKQQEDPELRKLSLRDALHSAKHVNDEELREEVERLLEEVESSSSSSS
B6: il10ra_site1_normal_mot_HHH_b2_00273_000000062_0001_23_39_H_._HHH_b1_08219_af2_0001_0000100003_0000002_0 (protein)
chain: SSSSSDEEERLRELLEEVEEAIEEGDDEKALRLIQEALRIVFRLGDQEALQLLWELAKLASSSSS
B7: il10ra_site1_sap_11_mot_HHH_b1_06348_000000162_0001_1_15_H_._HHH_b2_01068_0001_0000300025_0000001_0_0001 (protein)
chain: SSSSDELRELFEAAARLLEQAEEWGDERLIEAMLLALRMLAERLKDPELEREVEELERELSSSSS
B8: il10ra_site1_sap_15_mot_HHH_b1_05357_000000034_0001_23_39_H_._2882495fe543bf04d475310816427418_0001_0001_0000100004_0000001_0_0001_af2pred_0001 (protein)
chain: SSSSSSSAERAVRLLLRAAKEIEDEEALKLALRDAEAAARSLNDEELEELVEEVKRELSSSSSSS
B9: il10ra_site1_sap_16_mot_HHH_b2_07145_000000168_0001_24_40_H_._HHH_b1_00810_0001_0000100002_0000002_0_0001_af2pred_0001 (protein)
chain: SSSSSDREVVRRVRELLRRALEIEDEEEAREVLEEALELAEEGNNAVLVAVLRYALERLDSSSSS
B10: il10ra_site1_normal_mot_HHH_b1_00999_000000080_0001_41_55_H_._ems_p1-16H-GBL-16H-GABBL-15H_0180_0001_0001_0002_0001_0000700042_0000001_0 (protein)
chain: SSSSSSEVIQLIQRAVRAAFRNGDEEALRQLWELVKKFGEGIISEEEAREIAEEILEELGSSSSS
B11: il10ra_site1_sap_22_mot_HHH_b1_04940_000000219_0001_1_18_H_._HHH_b1_07376_0001_0000200013_0000001_0_0001 (protein)
chain: SSSSSSDEEEVEELLEEAEKISDERERNEVLIRALKIAIQLGNPELLQLVWEVVHKLNSSSSSSS
B12: il10ra_site1_normal_mot_HHH_b1_00682_000000211_0001_1_20_H_._HHH_b2_05022_af2_0001_0000300024_0000002_0 (protein)
chain: SSSSDAEELAEEVIRRLEELLERGDNDEVYKLLREAVEELRELNNEEALRLLIEFVAHLFSSSSS
B13: il10ra_site1_normal_mot_HHH_b2_01310_000000089_0001_41_55_H_._HHH_b1_07197_af2_0001_0000300012_0000001_0_af2pred_0001 (protein)
chain: SSSSSEVEKRVEELLEEAEQLIEEGDEEEVIRLLREALRFALEAQNPELIELVYEVARLLSSSSS
B14: il10ra_site1_sap_21_mot_HHH_b2_07006_000000108_0001_1_19_H_._HHH_b1_04108_af2_0001_0000200002_0000001_0_0001 (protein)
chain: SSSSDASRRIYELLRRAMELLDEGNPEEARKLVEEAEELAEEANNMILLEVLKFVEEQINSSSSS
B15: il10ra_site1_normal_mot_b26a303360aa2756ef5b79665ce52f45_0001_000000179_0001_1_11_H_._HHH_b1_06778_0001_0000200024_0000001_0_af2pred_0001 (protein)
chain: SSSSSSSDESVKLIRRVVELARLNTEESREEIKEIIEILEELGTLIALVAARHLLRAHSSSSSSS
B16: il10ra_site1_sap_16_mot_HHH_b1_03314_af2_000000278_0001_42_55_H_._HHH_b1_02981_0001_0000200012_0000001_0_0001 (protein)
chain: SSSSSAQEVFELLKRAIELAKEGNPEEAEELLKRAEEIAEEQNSKVMKWVIEFVEEEVKRLSSSS
B17: il10ra_site1_normal_mot_HHH_b1_04771_000000013_0001_40_56_H_._HHH_b2_04957_af2_0001_0000400010_0000002_0 (protein)
chain: SSSSDELVEEAVKLSTKAFELALRGNKEEAEKVLEEAEEIAEEGNDPRIREVVEDLKEALSSSSS
B18: il10ra_site1_normal_mot_HHH_b1_01874_000000035_0001_1_20_H_._HHH_b2_03660_0001_0000200010_0000001_0 (protein)
chain: SSSSDLFEEVRELLEQAFELLHEGNPEEAERLAEEALKLAEERNNDVFRFSIRLLLRDIGSSSSS
B19: il10ra_site1_normal_mot_HHH_b1_05370_000000138_0001_1_16_H_._HHH_b2_06500_af2_0001_0000400005_0000002_0 (protein)
chain: SSSSDEEIEERVKELLEEAEKTDDVDEFYELLREAIELAAEGRDPELLELVREILRRFLRSSSSS
B20: il10ra_site1_normal_mot_HHH_b1_05254_000000006_0001_1_19_H_._HHH_b1_03268_0001_0000200021_0000002_0 (protein)
chain: SSSSSADEAYELLRRAIELAKEGNPEEARELLKEAKEIAEELNSEVLKWLIEFVEEEVEKSSSSS
B21: il10ra_site1_normal_mot_HHH_b2_02053_af2_000000006_0001_3_19_H_._HHH_b1_03421_0001_0000100006_0000002_0 (protein)
chain: SSSSSDAAEEVYRLSREALELRARGNPEEARRVAEEAEEVAEEGNNPVLLIVVRFLLRDLSSSSS
B22: il10ra_site1_sap_19_mot_HHH_b2_00401_000000001_0001_40_54_H_._HHH_b2_02467_af2_0001_0000300016_0000002_0_0001 (protein)
chain: SSSSDEERRRLARLMEEFVEAFIRNDEELVRELTEEAAKLAQELGNERLLKFLEDMERSLSSSSS
B23: il10ra_site1_normal_mot_HHH_b2_03220_af2_000000223_0001_23_40_H_._HHH_b1_03379_af2_0001_0000400019_0000001_0_af2pred_0001 (protein)
chain: SSSSSSSEARRVVELIREALRIEDPEEAEEVLREAEEIAEELGDELLRLMVEAAKRRLSSSSSSS
B24: il10ra_site1_sap_24_mot_HHH_b1_05254_000000006_0001_1_19_H_._HHH_b2_03810_af2_0001_0000400052_0000001_0_0001 (protein)
chain: SSSSEEVEELLKQVEEALKEGDPKKALHLLWRALKLAVEEDDPELIEEIYELLRETWERSHSSSS

Molecular target: il10ra, Q13651
Test: yeast display titration

Apparent Kd, inactive:
B1 no binding seen
B2 no binding seen
B3 no binding seen
B4 no binding seen
B5 no binding seen
B6 no binding seen
B7 no binding seen
B8 no binding seen
B9 no binding seen
B10 no binding seen
B11 no binding seen
B12 no binding seen
B13 no binding seen
B14 no binding seen
B15 no binding seen
B16 no binding seen
B17 no binding seen
B18 no binding seen
B19 no binding seen
B20 no binding seen
B21 no binding seen
B22 no binding seen
B23 no binding seen
B24 no binding seen

2 records picked at random from those above, as already listed:
Apparent Kd, inactive:
B7 no binding seen
B2 no binding seen
